# Test results reported in the supplement of paper PMC8728848.
# This is one part of the list.
# Legend:
# Assay in all cases: glycan array binding signal (z-score within array); higher = stronger binding
# Settings in all cases: glycan notation: IUPAC condensed, linker removed
# [1] = target: Neu5Ac(a2-3)Gal(b1-4)GlcNAc(b1-3)Gal(b1-4)GlcNAc(b1-2)Man(a1-3)[Neu5Ac(a2-3)Gal(b1-4)GlcNAc(b1-3)Gal(b1-4)GlcNAc(b1-2)Man(a1-6)]Man(b1-4)GlcNAc(b1-4)GlcNAc
# Method in brief: (§1)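 The binding signal is a Z-score computed within each array and averaged over linkers. Arrays of the same protein sequence at different concentrations or buffers were also averaged together. Data originate from 3228 arrays in the Consortium for Functional Glycomics database, kept only where the protein sequence was available.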
# [2] = target: Neu5Ac(a2-3)Gal(b1-4)GlcNAc(b1-3)Gal(b1-4)GlcNAc(b1-3)Gal(b1-4)GlcNAc
# Method in brief: as §1
# [3] = target: Neu5Ac(a2-3)Gal(b1-4)GlcNAc(b1-3)Gal(b1-4)GlcNAc(b1-3)Gal(b1-4)GlcNAc(b1-2)Man(a1-3)[Neu5Ac(a2-3)Gal(b1-4)GlcNAc(b1-3)Gal(b1-4)GlcNAc(b1-3)Gal(b1-4)GlcNAc(b1-2)Man(a1-6)]GalNAc
# Method in brief: as §1
# [4] = target: Neu5Ac(a2-3)Gal(b1-4)GlcNAc(b1-3)Gal(b1-4)GlcNAc(b1-3)GalNAc
# Method in brief: as §1
# [5] = target: Neu5Ac(a2-3)Gal(b1-4)GlcNAc(b1-3)Gal(b1-4)GlcNAc(b1-3)[Neu5Ac(a2-3)Gal(b1-4)GlcNAc(b1-3)Gal(b1-4)GlcNAc(b1-6)]GalNAc
# Method in brief: as §1
# [6] = target: Neu5Ac(a2-3)Gal(b1-4)GlcNAc(b1-3)Gal(b1-4)GlcNAc(b1-6)[Gal(b1-3)]GalNAc
# Method in brief: as §1
# [7] = target: Neu5Ac(a2-3)Gal(b1-4)GlcNAc(b1-3)Gal(b1-4)[Fuc(a1-3)]GlcNAc
# Method in brief: as §1
# [8] = target: Neu5Ac(a2-3)Gal(b1-4)GlcNAc(b1-3)GalNAc
# Method in brief: as §1
# [9] = target: Neu5Ac(a2-3)Gal(b1-4)GlcNAc(b1-3)[Neu5Ac(a2-3)Gal(b1-4)GlcNAc(b1-6)]GalNAc
# Method in brief: as §1
# [10] = target: Neu5Ac(a2-3)Gal(b1-4)GlcNAc(b1-6)GalNAc
# Method in brief: as §1
# [11] = target: Neu5Ac(a2-3)Gal(b1-4)GlcNAc(b1-6)[Gal(b1-3)]GalNAc
# Method in brief: as §1
# [12] = target: Neu5Ac(a2-3)Gal(b1-4)GlcNAc(b1-6)[Neu5Ac(a2-3)Gal(b1-3)]GalNAc
# Method in brief: as §1
# [13] = target: Neu5Ac(a2-3)Gal(b1-4)GlcNAc6S
# Method in brief: as §1
# [14] = target: Neu5Ac(a2-3)Gal(b1-4)[Fuc(a1-3)]GlcNAc
# Method in brief: as §1
# [15] = target: Neu5Ac(a2-3)Gal(b1-4)[Fuc(a1-3)]GlcNAc(b1-2)Man
# Method in brief: as §1
# [16] = target: Neu5Ac(a2-3)Gal(b1-4)[Fuc(a1-3)]GlcNAc(b1-3)Gal
# Method in brief: as §1
# [17] = target: Neu5Ac(a2-3)Gal(b1-4)[Fuc(a1-3)]GlcNAc(b1-3)Gal(b1-4)GlcNAc
# Method in brief: as §1
# [18] = target: Neu5Ac(a2-3)Gal(b1-4)[Fuc(a1-3)]GlcNAc(b1-3)Gal(b1-4)[Fuc(a1-3)]GlcNAc(b1-3)Gal(b1-4)[Fuc(a1-3)]GlcNAc
# Method in brief: as §1
# [19] = target: Neu5Ac(a2-3)Gal(b1-4)[Fuc(a1-3)]GlcNAc(b1-3)GalNAc
# Method in brief: as §1
# [20] = target: Neu5Ac(a2-3)Gal(b1-4)[Fuc(a1-3)]GlcNAc(b1-6)[Gal(b1-3)]GalNAc
# Method in brief: as §1
# [21] = target: Neu5Ac(a2-3)Gal(b1-4)[Fuc(a1-3)]GlcNAc(b1-6)[Neu5Ac(a2-3)Gal(b1-3)]GalNAc
# Method in brief: as §1
# [22] = target: Neu5Ac(a2-3)Gal(b1-4)[Fuc(a1-3)]GlcNAc6S
# Method in brief: as §1
# [23] = target: Neu5Ac(a2-3)Gal6S(b1-4)GlcNAc
# Method in brief: as §1
# [24] = target: Neu5Ac(a2-3)Gal6S(b1-4)[Fuc(a1-3)]GlcNAc
# Method in brief: as §1
# [25] = target: Neu5Ac(a2-3)GalNAc
# Method in brief: as §1
# [26] = target: Neu5Ac(a2-3)GalNAc(b1-4)GlcNAc
# Method in brief: as §1
# [27] = target: Neu5Ac(a2-3)[GalNAc(b1-4)]Gal(b1-4)Glc
# Method in brief: as §1
# [28] = target: Neu5Ac(a2-3)[GalNAc(b1-4)]Gal(b1-4)GlcNAc
# Method in brief: as §1
# [29] = target: Neu5Ac(a2-3)[GalNAc(b1-4)]Gal(b1-4)GlcNAc(b1-3)GalNAc
# Method in brief: as §1
# [30] = target: Neu5Ac(a2-3)[Neu5Ac(a2-6)]GalNAc
# Method in brief: as §1
# [31] = target: Neu5Ac(a2-6)Gal
# Method in brief: as §1
# [32] = target: Neu5Ac(a2-6)Gal(b1-3)GlcNAc(b1-3)[Gal(b1-4)GlcNAc(b1-6)]Gal(b1-4)Glc
# Method in brief: as §1
# [33] = target: Neu5Ac(a2-6)Gal(b1-4)Glc
# Method in brief: as §1
# [34] = target: Neu5Ac(a2-6)Gal(b1-4)GlcNAc
# Method in brief: as §1
# [35] = target: Neu5Ac(a2-6)Gal(b1-4)GlcNAc(b1-2)Man
# Method in brief: as §1
# [36] = target: Neu5Ac(a2-6)Gal(b1-4)GlcNAc(b1-2)Man(a1-3)Man(b1-4)GlcNAc(b1-4)GlcNAc
# Method in brief: as §1
# [37] = target: Neu5Ac(a2-6)Gal(b1-4)GlcNAc(b1-2)Man(a1-3)[Gal(b1-4)GlcNAc(b1-2)Man(a1-6)]Man(b1-4)GlcNAc(b1-4)GlcNAc
# Method in brief: as §1
# [38] = target: Neu5Ac(a2-6)Gal(b1-4)GlcNAc(b1-2)Man(a1-3)[GlcNAc(b1-2)Man(a1-6)]Man(b1-4)GlcNAc(b1-4)GlcNAc
# Method in brief: as §1
binder,measurement,setting,value
SP15308C-bot-338-23-338 (Bacteroides ovatus) (protein) DEWTDEQFKQLISFKTQPGGWGVTDVHVRYANSAKYTYNLPVLVSGSTDNTDDRLVSFSLRDDTLDILNFEKFGNRPELYFRELPQKYYSFPKELTIPAGQSHALLPIEFSLDGLDDSQKWALPLKVCEDANGTYAVNPRKYYRTAVLRPILFNEFSGRFSGSSLLGTMAGESDIKFSSTEIKLNVVTDSIVFFYAGQRTEDYEDRINYKVFLQFTGDKVDSKKDLYKMKIWAENEKLKFNSYSTPTYKVSSEMDATKTYLKHTYIVISDIDFDFVDYTSVPNYEIEYNMKGGLSVSRDLDTRKPDEDQGSDSKWW,glycan array binding signal (z-score),[1],-0.056
same,glycan array binding signal (z-score),[2],0.532
same,glycan array binding signal (z-score),[3],0.621
same,glycan array binding signal (z-score),[4],-0.584
same,glycan array binding signal (z-score),[5],0.638
same,glycan array binding signal (z-score),[6],0.146
same,glycan array binding signal (z-score),[7],-0.432
same,glycan array binding signal (z-score),[8],-0.558
same,glycan array binding signal (z-score),[9],-0.252
same,glycan array binding signal (z-score),[10],-0.912
same,glycan array binding signal (z-score),[11],-0.853
same,glycan array binding signal (z-score),[12],-0.219
same,glycan array binding signal (z-score),[13],0.009
same,glycan array binding signal (z-score),[14],-0.437
same,glycan array binding signal (z-score),[15],0.13
same,glycan array binding signal (z-score),[16],-0.325
same,glycan array binding signal (z-score),[17],-0.269
same,glycan array binding signal (z-score),[18],-0.739
same,glycan array binding signal (z-score),[19],3.23
same,glycan array binding signal (z-score),[20],1.72
same,glycan array binding signal (z-score),[21],0.418
same,glycan array binding signal (z-score),[22],-0.932
same,glycan array binding signal (z-score),[23],-1.16
same,glycan array binding signal (z-score),[24],-0.88
same,glycan array binding signal (z-score),[25],-0.419
same,glycan array binding signal (z-score),[26],-0.736
same,glycan array binding signal (z-score),[27],-0.825
same,glycan array binding signal (z-score),[28],-0.753
same,glycan array binding signal (z-score),[29],-0.37
same,glycan array binding signal (z-score),[30],0.544
same,glycan array binding signal (z-score),[31],-0.443
same,glycan array binding signal (z-score),[32],-0.272
same,glycan array binding signal (z-score),[33],-0.562
same,glycan array binding signal (z-score),[34],0.375
same,glycan array binding signal (z-score),[35],-0.153
same,glycan array binding signal (z-score),[36],0.711
same,glycan array binding signal (z-score),[37],-0.616
same,glycan array binding signal (z-score),[38],-0.65

# In another format: results already given.
binder | measurement | setting | value
SP15308C-bot-338-23-338 (Bacteroides ovatus) (protein) DEWTDEQFKQLISFKTQPGGWGVTDVHVRYANSAKYTYNLPVLVSGSTDNTDDRLVSFSLRDDTLDILNFEKFGNRPELYFRELPQKYYSFPKELTIPAGQSHALLPIEFSLDGLDDSQKWALPLKVCEDANGTYAVNPRKYYRTAVLRPILFNEFSGRFSGSSLLGTMAGESDIKFSSTEIKLNVVTDSIVFFYAGQRTEDYEDRINYKVFLQFTGDKVDSKKDLYKMKIWAENEKLKFNSYSTPTYKVSSEMDATKTYLKHTYIVISDIDFDFVDYTSVPNYEIEYNMKGGLSVSRDLDTRKPDEDQGSDSKWW | glycan array binding signal (z-score) | [30] | 0.544
same | glycan array binding signal (z-score) | [31] | -0.443
same | glycan array binding signal (z-score) | [32] | -0.272
